## Library screening results

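Viability assay of Plasmodium falciparum sporozoites; the read-out is not stated. The concentration is filed as 10 mM, unlikely as a test dose, so the dose is not known. Direction is inferred from retests: higher values go with lower viability. Strong results were mostly tested again. About 34,000 compounds were tested under these conditions; 0.84% (about 280) showed 50% or more at least once.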

Results are given as percent effect.
The controls that fix the scale are not given in the record; negative values are as filed.
The compounds are a random part of those screened.
Two or more numbers in one place are separate tests of the same structure; such repeats can differ widely.

For Cc1nc(NCc2ccc(C)o2)cc(C(=O)N2CCOCC2)n1 the result was -3.49%.
For Cn1ncnc1CNC(=O)N(CCCO)C1CCc2ccccc21 (centres unmarked) the result was -17.4%.
For COc1ccccc1-c1cc(NC(=O)CCS(=O)(=O)C2CCCC2)[nH]n1 the result was -10.48%.
For COC[C@@H]1CCC[C@]12CN(S(=O)(=O)c1cn(C)cn1)CCO2 the result was -8.818%.
For Cc1ccc(NC2CCN(C(=O)c3ccc(Cl)cc3F)CC2)nn1 the result was 3.634%.
For [H][C@]12CC[C@]([H])(CC(=O)NC1)N2C1CCSCC1 the result was -277.8%.
For CC(=O)N1CCC(Nc2cc(F)ccc2OCC2CCCO2)CC1 (centres unmarked) the result was -1.193%.
For Cc1ccc(NC(=O)NCCCc2n[nH]c(N)c2C#N)cc1 the result was 6.168%.
For CC(=O)NCc1ccc(C(=O)NC2CCc3nc(C)cn3C2)o1 (centres unmarked) the result was 10.1%.
For CCc1ocnc1C(=O)N1CCCC1c1noc(C)n1 (centres unmarked) the result was 2.612%.
For CC(C)Nc1ncnc2c1CCN(C(=O)NCc1cccc(F)c1)CC2 the result was 9.643%.
For O=C(c1cn(Cc2ccccc2)c2ncccc12)N1CCCCC1 the result was 2.711%.
For CC(C)(C)NC(=O)N1CCC(Oc2ccc(C(F)(F)F)cn2)CC1 the result was 14.41%.
For COc1ccc(C)cc1CC(=O)N1CC[C@@]2(CCCO2)[C@@H](O)C1 the result was -11.38%.
For CCN(CC(=O)NC(C)C)S(=O)(=O)N1CCC(C)C1 (centres unmarked) the result was -6.228%.
For CC(C)(C)c1noc(CN2CCCCC2Cn2cncn2)n1 (centres unmarked) the result was 8.176%.
For O=C(NCC(F)(F)F)c1ccc(-c2ccco2)[nH]c1=O the result was -6.954%.
For O=C(NCCc1ccco1)Nc1cc(C(F)(F)F)c[nH]c1=O the result was -1.162%.
For O=C1NCC2(CCCN(Cc3ccncc3)C2)Oc2ccccc21 (centres unmarked) the result was -3.009%.
For CCn1cc(CN2CCCN(C(=O)CCn3cc(C)cn3)CC2)cn1 the result was -14.05%.
For CC1CCN(C(=O)c2ccn(COc3ccc(F)cc3)n2)CC1 the result was -8.07%.
For Cc1ncc2c(n1)CN(Cc1nc(-c3ccsc3)no1)CC2 the result was -2.962%.
For COc1cc(F)c(NC(=O)N(C)CCNC(=O)N(C)C)cc1F the result was -5.346%.
For CC(C)(C)n1ncc2c1NC(=O)CC2c1ccccc1 (centres unmarked) the result was 3.43%.
For COCC(=O)N1C[C@@H](c2cccc(OC)c2)[C@@]2(CCCCC(=O)N2)C1 the result was 3.616%.
For Cc1ccc2c(n1)N(C)CCN(C(=O)C1CC1)C2.O=C(O)C(F)(F)F the result was -1.84%.
For CN1CSC[C@H]1C(=O)N1CCC(Cc2ccccc2F)CC1 the result was -10.06% & -7.032%.
For COc1cccc(CN(C)C(=O)CCC(=O)c2ccc(Cl)cc2)c1OC the result was -16.74%.
For Cc1cccc(NC(=O)N2CCCn3cnc(CN(C)C(C)C)c3C2)c1.O=C(O)C(F)(F)F the result was 4.566%.
For O=C(NS(=O)(=O)c1ccc2c(c1)OCCO2)c1ccc(Br)cc1F the result was -6.444%.
For O=C(O)C(F)(F)F.[H][C@@]12CCN(c3nnc(C)s3)C[C@]1([H])O[C@H](C(=O)NC1CCCC1)C2 the result was 4.8%.
For CC(NCc1ccccn1)c1cc2c(cc1Br)OCCO2 (centres unmarked) the result was -3.908%.
For O=C(C1CC1)N1CCC2(CCCN2Cc2ccc(F)cc2)CC1.O=C(O)C(F)(F)F the result was 7.093%.
For O=C(NCCCn1cccn1)N1CCCC1c1cccs1 (centres unmarked) the result was -2.941%.
For COc1cccc(C(=O)N2CCCC(c3cc(C)[nH]n3)C2)c1OC (centres unmarked) the result was 6.72%.
For CCOCC(=O)N1CCC2(CC1)COCCN2CCOC.O=C(O)C(F)(F)F the result was 2.52% & -0.4826%.
For COc1cc(-c2cc(N)ncn2)cc(OC)c1OC the result was -1.27%.
For Cl.O[C@@H]1CN(Cc2ccc(F)c(F)c2)CC[C@H]1NCc1ccccn1 the result was 10.13%.
For COc1ccc(CN2CC(O)CN(C(=O)C3CCC3)CC2=O)cc1 (centres unmarked) the result was 19.89%.
For Cc1cnn(CC(=O)N2CCC(c3ccn4nccc4n3)CC2)c1 the result was 7.609%.
For COCCOCC(=O)N(Cc1cccc(C)c1)C(C)C the result was -14.57%.
For Cc1nc(C)n(CC2CCCN(Cc3nc(C4CC4)no3)C2)n1 (centres unmarked) the result was 6.24%.
For COc1cnc(C2(O)CCN(C(=O)c3cccnc3)CC2)c(OC)n1 the result was -14.81%.
For O=C(O)C(F)(F)F.[H][C@]12CC[C@@]3(N=C(CC)N(C)C3=O)[C@@]1([H])CN(Cc1cccc(Cl)c1)C2 the result was 5.105%.
For CC(C(=O)N1CCCN(Cc2ccc(C#N)cc2)CC1)n1cccn1 (centres unmarked) the result was 4.932%.
For COc1ccc(CN2CCc3ncnc(C4CCOC4)c3CC2)cc1.O=C(O)C(F)(F)F (centres unmarked) the result was -0.3247%.
For Cc1cnn(CCNCc2cccnc2)c1 the result was -16.71%.
For NC(=O)c1cccc(CCNCc2cnc(-c3cccs3)s2)c1 the result was -19.24%.
For CCCc1n[nH]c(C2CN(CCC(F)(F)F)CCO2)n1 (centres unmarked) the result was 4.778%.
For CC(C)C[C@H](N)c1nnc(SCC(=O)Nc2ccc(Br)cc2)o1.Cl the result was -9.173%.
For OC(COCc1ccccc1)CN1CC(n2cccn2)C1 (centres unmarked) the result was 3.078%.
For O=C(NCC1Cn2nnc(-c3ccncc3)c2CO1)c1ccc[nH]1 (centres unmarked) the result was -13.14%.
For Cn1ncc(NCc2cc(F)cc(F)c2)c(Cl)c1=O the result was 11.03%.

4 of the entries, repeated:

{"structure": "COCCOCC(=O)N(Cc1cccc(C)c1)C(C)C", "effect": -14.57}
{"structure": "COc1cccc(CN(C)C(=O)CCC(=O)c2ccc(Cl)cc2)c1OC", "effect": -16.74}
{"structure": "CC(C)(C)NC(=O)N1CCC(Oc2ccc(C(F)(F)F)cn2)CC1", "effect": 14.41}
{"structure": "CC(C)(C)c1noc(CN2CCCCC2Cn2cncn2)n1", "stereo": "centres unmarked", "effect": 8.176}

The values are deposited in ChEMBL (CHEMBL3988442, “University of Dundee, Small-Polar-MMV Screening Library” (2021)).